# Assay results as given in patent US6242478A, “Five member ring sulfenate esters and thiosulfinate esters” (Wake Forest University, priority 1999, dated 2001).
# The name of at least one read-out is uncertain.
# Tested on: HIV-1RF
# Experiment: XTT cytoprotection assay, anti-HIV-1 activity (EC50) in CEM-SS cells
# Format: cell-based
# Settings: at 95 μM
# Text: Both the XTT and monocyte/macrophage assays were used because infection of monocyte/macrophage cultures is thought to resemble infection of the nonproliferating pool of cells in vivo, while the parameters for the CEM-SS cells (XTT assay) are thought to reflect more closely the parameters for highly proliferating cells such as bone marrow and intestinal cells. The CEM-SS cell (XTT) assay is a more sensitive indicator of toxicity and all compounds disclosed herein have been screened in this assay.
# Based on these preliminary screens, it is contemplated that an aromatic or large substituent at R1 (compare entries 1 & 4, 9 & 10) and a small substituent at R2 (compare entries 1, 2, & 3; 7, 8, & 9) may be best for anti-HIV-1 activity. Sulfur heterocycles containing more than 6 atoms don't appear to be active (entries 13 & 14). […] As observed for 8 previously (Rice et al., 1997), anti-HIV-1 activity and toxicity of 53a went down when treated with 2 equivalents of GSH (entry 6).
structure (smiles),measurement,value
COC(=O)C1=C(c2ccccc2)[S+]([O-])SC1 (stereo not shown) [53a],Maximum cytoprotection with GSH,44%
